Data on 54 sequences can be found in article PMC7819943, “Rice protein-binding microarrays: a tool to detect cis-acting elements near promoter regions in rice”.

Protein sequences, listed by entry. Tags and fused reporters are not part of them.
UniProt Q0JBA9, entry or part of it: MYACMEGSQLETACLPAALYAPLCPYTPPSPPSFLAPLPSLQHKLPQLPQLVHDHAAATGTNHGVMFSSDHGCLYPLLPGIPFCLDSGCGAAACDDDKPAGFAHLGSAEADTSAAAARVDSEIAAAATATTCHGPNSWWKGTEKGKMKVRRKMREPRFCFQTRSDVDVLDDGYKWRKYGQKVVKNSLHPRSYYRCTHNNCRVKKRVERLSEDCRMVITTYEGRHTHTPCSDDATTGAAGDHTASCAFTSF

Some of the results follow.

The target in the test is OsWRKY34 (Oryza sativa, UniProt Q0JBA9 1-250). The experiment in a line: protein-binding microarray (RPBM); PBS, 2% BSA, 51.3 ng/ul salmon testes DNA, 50 uM zinc acetate, 200 nM TF, 25 C, 1 h; high values mean tight binding. The settings on record: protein: recombinant; tags: N-terminal polyhistidine and DsRed monomer fusion (pET32a); label: CyDye5-dUTP incorporated in the synthesized complementary strand; 3' TTTTT single-stranded linker to array surface; dsDNA, one strand shown. The method, boiled down: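 An Axon 4000B scanner gave the binding signal as per-feature fluorescence intensity in arbitrary units. This followed washing of a custom Agilent array that had been incubated for 1 h at 25 °C with 200 nM protein in PBS, 2% BSA, salmon testes DNA and 50 µM zinc acetate. The proteins were transcription factors fused at the N-terminus to polyhistidine and DsRed, expressed in E. coli BL21-CodonPlus and purified on Ni–NTA.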
For the sequence “CTTCTATCTGATCTACCAGCTGCTTGGTCCCTTGATGTGACGGAGTCACCTAGTGCAG”, the binding signal is 9670 fluorescence intensity (a.u.).
The figure for “GCCATTATCCTCTTCCTCTCTAATTATCTCCCTGCCCGAACGGAGTCACCTAGTGCAG” is 9720 fluorescence intensity (a.u.).
Regarding “TTCTTATTATTATTATTATTCATCTTGCATATGCACGCATCGGAGTCACCTAGTGCAG”, the binding signal is 9400 fluorescence intensity (a.u.).
For “CTCTTTCTCTCTCTCTGTGAATGGTGTCGGTTCTCCTGGTCGGAGTCACCTAGTGCAG”, the binding signal is 10900 fluorescence intensity (a.u.).
On to “GGAGATCTTATACCCGATTTTACTGTTGAGGATTGTGACTCGGAGTCACCTAGTGCAG”, for which the binding signal was 8640 fluorescence intensity (a.u.).
“GATCCGCGGCGCGGGTGGGGTTGTGGGGCGGGCGGAGATGCGGAGTCACCTAGTGCAG”: the binding signal is 19200 fluorescence intensity (a.u.).
The figure for “TTCCACGATCCGCCAATCCGCTGCATTCACCCGTCACCACCGGAGTCACCTAGTGCAG” is 11500 fluorescence intensity (a.u.); for “CCTGATCTCTTCATGCATAGCTCTATTTAAAATTTTCTTTCGGAGTCACCTAGTGCAG” it is 10400 fluorescence intensity (a.u.); for “TTTGTTTTTTCTCTTTTTTTTTCCCGAATTCCCAGACCAACGGAGTCACCTAGTGCAG” it is 9150 fluorescence intensity (a.u.).
In the case of “TGTTCTTGCTACGCTGGGAGGGGAGGGGTGGCGCCGCGGCCGGAGTCACCTAGTGCAG”, the binding signal is 21700 fluorescence intensity (a.u.).
In the case of “ACTAGTGGGAATTTCCCCTGCAAATTTACTGTCAGCTTTTCGGAGTCACCTAGTGCAG”, the binding signal was 8530 fluorescence intensity (a.u.).
The figure for “TATCTTCTTCAGGGTCGACCTCTTGCCCTTCTCACGTTCGCGGAGTCACCTAGTGCAG” is 11800 fluorescence intensity (a.u.).
Regarding “GGCTGTCCATATCGTTTACATATTGTGCACGTACGTACGCCGGAGTCACCTAGTGCAG”, the binding signal was 11500 fluorescence intensity (a.u.).
The figure for “TCTGTCTTTGAACTCACATCAATTAGCTTAAGTTTCCATACGGAGTCACCTAGTGCAG” is 8850 fluorescence intensity (a.u.); for “GCCATTAATACGGCAGGTCGCCCATCCCATCGCGTCTCCTCGGAGTCACCTAGTGCAG” it is 8320 fluorescence intensity (a.u.); for “GTCTGGTTTAGTTCCTAATTTTTTCTTCAAACTTTTAACTCGGAGTCACCTAGTGCAG” it is 10300 fluorescence intensity (a.u.).
The figure for “TGTGCAGTTTTGCTGTTTATGACTAGTTTACCTGTTGTCTCGGAGTCACCTAGTGCAG” is 10800 fluorescence intensity (a.u.); for “CACTATTCCTTTCCGGATTGCTTCTGCGTTCTACTTGATGCGGAGTCACCTAGTGCAG” it is 11000 fluorescence intensity (a.u.); for “AATTTTATTGAGGCTAGGGAATTTGTTGTTGATCTCTGTCCGGAGTCACCTAGTGCAG” it is 8170 fluorescence intensity (a.u.).
The figure for “AATTCCGATCCCATTGGTCATTGACCACCGGGCTGGTTGCCGGAGTCACCTAGTGCAG” is 10600 fluorescence intensity (a.u.); for “CCTTTCTGTTGTTTTAAGAGTCAATGTTGCACTTCATATCCGGAGTCACCTAGTGCAG” it is 8780 fluorescence intensity (a.u.).
Turning to “ATGCTAGGCCTCATTGTTTTCTTTGGTATTTTGAGTTCTCCGGAGTCACCTAGTGCAG”, the binding signal is 10100 fluorescence intensity (a.u.).
The figure for “GTCCCGTATCATATTGCCGTCTCAGCGACCCAGCCGCCGCCGGAGTCACCTAGTGCAG” is 8080 fluorescence intensity (a.u.).
In the case of “ACATATACTACACTTTAATATCTGATCCCACCTGTCATACCGGAGTCACCTAGTGCAG” it was 9270 fluorescence intensity (a.u.); in that of “TCGGTCCCTCAACATTTGACGTTGTTGACTTTTTAAAATTCGGAGTCACCTAGTGCAG”, 11400 fluorescence intensity (a.u.); in that of “GTCGTCGTCTACTTCGCTGCCGCGTCCTCCATCCTCCATGCGGAGTCACCTAGTGCAG”, 12400 fluorescence intensity (a.u.).
The figure for “CCTCGCGCCATCAACACAACCAACGTCCCATTGCCACCTTCGGAGTCACCTAGTGCAG” is 11300 fluorescence intensity (a.u.); for “CATTTGATGGAGCTGGGCTTGTGGGTAATGTTAGCCTGTCCGGAGTCACCTAGTGCAG” it is 8390 fluorescence intensity (a.u.).
With “TCAGCTTTCTCTGTTGATTCACCTGCCTTATCTGTTCTATCGGAGTCACCTAGTGCAG”, the binding signal is 8930 fluorescence intensity (a.u.).
The figure for “ACCAAAACCAACCATTGACAATTTGACCTCTGCAATCTGTCGGAGTCACCTAGTGCAG” is 8710 fluorescence intensity (a.u.); for “CCTCCGCCGCCTTCCACCCTCTCTCTCGAGAGCCCAGATCCGGAGTCACCTAGTGCAG” it is 8570 fluorescence intensity (a.u.).
Regarding “TATATGTTGATACATGTGCACTCTTCTAATCAAGTGATCACGGAGTCACCTAGTGCAG”, the binding signal is 9100 fluorescence intensity (a.u.).
The figure for “CATTTTTCTTTGCCAACCGATCTGCCCGTCTCCCGCCGCCCGGAGTCACCTAGTGCAG” is 8920 fluorescence intensity (a.u.); for “CTAGGTTTCCTATATTTCTTCACACATCAATCATTCTTTGCGGAGTCACCTAGTGCAG” it is 9070 fluorescence intensity (a.u.).
For “CTCCACCTCTGATCCTACTCCGGCTCTCCGGCGACACCGCCGGAGTCACCTAGTGCAG”, the binding signal was 11400 fluorescence intensity (a.u.).
For the sequence “AGGTGGAGGTGGTCTCAAGGGAAGCATGCACTAGCTTTTACGGAGTCACCTAGTGCAG”, the binding signal is 8160 fluorescence intensity (a.u.).
For “TTTCTATATGGACTCTGCTTTTTCTTTTTCTCCGATTAATCGGAGTCACCTAGTGCAG”, the binding signal is 10600 fluorescence intensity (a.u.).
The figure for “TTGAAATGTCATCTTCTCAGTTCAGCAGCTCCATTTGTTACGGAGTCACCTAGTGCAG” is 9920 fluorescence intensity (a.u.); for “TGCATTGATCTTCCACAGAGCTTTCCAGCTTTTCTGACTCCGGAGTCACCTAGTGCAG” it is 9470 fluorescence intensity (a.u.).
In the case of “CGAGTGGTGGGGTGGGGAGTCGCGTGCCCGCGCCGAGACCCGGAGTCACCTAGTGCAG” it was 11700 fluorescence intensity (a.u.); in that of “TGTTTGGTAACTCGAGGGAAGGGGATTGGGAGTTTACACGCGGAGTCACCTAGTGCAG”, 8280 fluorescence intensity (a.u.); in that of “AGGGTTTGGCACGGGCGGGGCGGAGGCGCGCTGCACACATCGGAGTCACCTAGTGCAG”, 12600 fluorescence intensity (a.u.).
As for “TACGTCCGCGAATACTGCTTTGTTTTTTAGCGCTTGATCACGGAGTCACCTAGTGCAG”, the binding signal is 9320 fluorescence intensity (a.u.).
Turning to “ACGGGCTTAAACACATCTTACATTCTCATCACCAAGCAAACGGAGTCACCTAGTGCAG”, the binding signal was 11400 fluorescence intensity (a.u.).
Turning to “TTATAAATACATACTGCATCATTAATGTTTTCCTCACATTCGGAGTCACCTAGTGCAG”, the binding signal was 8480 fluorescence intensity (a.u.).
The figure for “GAGAGGGGATGGGGTTGAGTGGTGGGGCCTATGATTGGCACGGAGTCACCTAGTGCAG” is 13300 fluorescence intensity (a.u.).
In the case of “CACATCGTTTTTCCATGCACACGCTTCCTAAACTGCTAAACGGAGTCACCTAGTGCAG” it was 8480 fluorescence intensity (a.u.).
In the case of “CTCTCTCTCTCCTCTGCCTTTTTAAGCAGCCACACGTCGACGGAGTCACCTAGTGCAG” it was 8160 fluorescence intensity (a.u.); in that of “ATTTGATGCCACTTTTAATTTACTTTCCCATTTTAATGTACGGAGTCACCTAGTGCAG”, 8090 fluorescence intensity (a.u.); in that of “TGTTAATTCTTACTGCCGGCACTTCTTTTTTTGCTGGACACGGAGTCACCTAGTGCAG”, 8450 fluorescence intensity (a.u.).
For the sequence “GATACTACCTCCGTCCCAAAATATAGCAACTTTTGATTATCGGAGTCACCTAGTGCAG”, the binding signal is 8120 fluorescence intensity (a.u.).
For “TGGTTTGCTCACTTCATCACAGGTTTGCTCCCATACTTCTCGGAGTCACCTAGTGCAG”, the binding signal was 10200 fluorescence intensity (a.u.).
For “AAAGCTCGATTTGTCGTACTCACACACCTCACCACACGCCCGGAGTCACCTAGTGCAG”, the binding signal was 8720 fluorescence intensity (a.u.).
The figure for “AATATTTTAATGGGTGCAGTTTCCATGAGCTAATTTCCATCGGAGTCACCTAGTGCAG” is 9820 fluorescence intensity (a.u.).
